The target of experiment [1] is SNAP/FLAG-hGLP1R^WT (human) (UniProt P43220). The experiment in a line: affinity purification with mass spectrometry; interactome of SNAP/FLAG-hGLP1R^WT or ^A316T immunoprecipitated from INS-1 832/3 Glp1r−/− cells, vehicle versus GLP-1 or exendin-4 stimulation; normalized to isolated receptor amounts per immunoprecipitate.
For experiment [2], the target named is SNAP/FLAG-hGLP1R^A316T (human) (UniProt P43220). Described as above.

Protein sequences, listed by entry. Tags and fused reporters are not part of them. Lines headed by an entry give the natural chain unless they say otherwise; changes in a name come on top. Chains listed by the source or under a name are the forms on record and can include a tag or linker. Residues count along the entry.
SNAP/FLAG-hGLP1R^WT (P43220, residues 24-463): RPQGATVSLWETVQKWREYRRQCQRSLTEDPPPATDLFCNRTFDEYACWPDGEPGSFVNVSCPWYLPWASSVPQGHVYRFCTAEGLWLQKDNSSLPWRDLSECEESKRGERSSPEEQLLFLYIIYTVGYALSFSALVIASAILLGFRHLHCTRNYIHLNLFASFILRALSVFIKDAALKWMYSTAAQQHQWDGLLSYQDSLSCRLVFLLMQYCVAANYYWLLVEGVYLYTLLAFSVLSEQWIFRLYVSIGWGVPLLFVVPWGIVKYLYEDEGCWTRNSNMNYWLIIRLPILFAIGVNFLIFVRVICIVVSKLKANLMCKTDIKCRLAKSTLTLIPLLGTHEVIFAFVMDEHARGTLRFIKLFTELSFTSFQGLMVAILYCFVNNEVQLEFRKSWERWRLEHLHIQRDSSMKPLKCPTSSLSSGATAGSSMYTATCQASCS
SNAP/FLAG-hGLP1R^A316T (P43220, form named): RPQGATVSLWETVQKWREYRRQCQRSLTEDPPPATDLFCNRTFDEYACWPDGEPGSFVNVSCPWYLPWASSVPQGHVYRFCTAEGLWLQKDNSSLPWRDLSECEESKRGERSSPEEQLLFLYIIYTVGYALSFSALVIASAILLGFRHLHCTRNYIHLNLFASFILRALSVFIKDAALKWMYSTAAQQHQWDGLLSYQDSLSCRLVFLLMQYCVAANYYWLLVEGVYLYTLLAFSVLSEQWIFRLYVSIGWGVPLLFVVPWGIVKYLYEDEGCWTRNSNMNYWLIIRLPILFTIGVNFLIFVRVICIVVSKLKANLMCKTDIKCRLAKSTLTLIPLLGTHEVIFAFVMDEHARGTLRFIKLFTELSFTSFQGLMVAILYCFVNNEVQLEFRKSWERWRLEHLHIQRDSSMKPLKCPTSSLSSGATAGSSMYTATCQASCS
UniProt P0C6C0: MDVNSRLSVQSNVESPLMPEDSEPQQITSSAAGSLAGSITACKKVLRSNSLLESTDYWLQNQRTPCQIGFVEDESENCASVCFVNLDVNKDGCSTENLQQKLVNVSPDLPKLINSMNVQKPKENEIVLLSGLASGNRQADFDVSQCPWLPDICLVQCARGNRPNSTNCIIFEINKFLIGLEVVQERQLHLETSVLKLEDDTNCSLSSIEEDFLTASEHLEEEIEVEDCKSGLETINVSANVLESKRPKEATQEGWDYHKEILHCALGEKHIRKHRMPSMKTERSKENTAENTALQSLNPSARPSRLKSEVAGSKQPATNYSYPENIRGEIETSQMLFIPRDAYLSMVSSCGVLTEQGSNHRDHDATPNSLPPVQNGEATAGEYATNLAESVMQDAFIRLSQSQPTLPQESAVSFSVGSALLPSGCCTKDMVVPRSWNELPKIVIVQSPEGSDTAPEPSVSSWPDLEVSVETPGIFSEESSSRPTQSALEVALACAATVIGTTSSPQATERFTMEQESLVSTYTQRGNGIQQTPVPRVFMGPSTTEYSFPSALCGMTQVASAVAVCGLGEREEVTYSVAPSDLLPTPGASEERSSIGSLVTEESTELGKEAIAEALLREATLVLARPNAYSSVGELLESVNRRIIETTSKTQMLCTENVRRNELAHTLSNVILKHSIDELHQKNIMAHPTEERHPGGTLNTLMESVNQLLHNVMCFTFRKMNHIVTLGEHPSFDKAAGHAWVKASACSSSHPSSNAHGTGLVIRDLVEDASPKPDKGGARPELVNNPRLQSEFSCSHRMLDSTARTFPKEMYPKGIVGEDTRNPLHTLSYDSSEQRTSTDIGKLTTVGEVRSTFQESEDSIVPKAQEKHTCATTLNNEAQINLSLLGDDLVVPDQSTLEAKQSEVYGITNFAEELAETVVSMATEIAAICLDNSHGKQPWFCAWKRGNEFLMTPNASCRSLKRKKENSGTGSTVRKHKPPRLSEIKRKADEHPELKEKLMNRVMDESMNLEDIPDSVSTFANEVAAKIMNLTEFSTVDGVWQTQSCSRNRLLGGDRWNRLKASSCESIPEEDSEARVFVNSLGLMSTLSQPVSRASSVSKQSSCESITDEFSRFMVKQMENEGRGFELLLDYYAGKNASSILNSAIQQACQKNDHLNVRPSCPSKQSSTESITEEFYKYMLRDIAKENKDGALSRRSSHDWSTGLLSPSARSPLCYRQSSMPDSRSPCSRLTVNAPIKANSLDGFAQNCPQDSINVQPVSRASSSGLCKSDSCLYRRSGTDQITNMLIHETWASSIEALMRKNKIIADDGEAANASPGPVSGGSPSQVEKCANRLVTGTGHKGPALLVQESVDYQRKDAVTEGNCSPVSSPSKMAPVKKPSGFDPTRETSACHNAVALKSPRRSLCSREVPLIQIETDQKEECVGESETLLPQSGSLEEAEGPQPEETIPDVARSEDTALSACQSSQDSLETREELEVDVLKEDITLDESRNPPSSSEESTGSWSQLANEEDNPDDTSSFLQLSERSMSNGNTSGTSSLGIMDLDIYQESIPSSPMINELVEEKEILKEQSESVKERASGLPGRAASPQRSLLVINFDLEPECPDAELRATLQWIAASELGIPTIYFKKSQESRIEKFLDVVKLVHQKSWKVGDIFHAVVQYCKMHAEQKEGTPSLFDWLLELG
UniProt Q9Z269: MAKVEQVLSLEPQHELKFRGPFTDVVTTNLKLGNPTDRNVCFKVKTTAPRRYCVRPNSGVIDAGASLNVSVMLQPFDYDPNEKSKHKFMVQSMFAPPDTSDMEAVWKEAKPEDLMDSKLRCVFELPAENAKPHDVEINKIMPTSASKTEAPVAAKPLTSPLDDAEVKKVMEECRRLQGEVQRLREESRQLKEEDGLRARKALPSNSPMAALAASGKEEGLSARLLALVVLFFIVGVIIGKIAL

Results are given in words; binding and its absence hold for the method and conditions named. Binding seen in cells or lysates may run through a third protein. Here binding means that the protein was enriched with, or labelled near, the bait; the list need not be complete.

In paper PMC13267291, “In vivo functional profiling and structural characterization of the human GLP1R A316T variant” (Science Advances, 2026) one finds binding data, which are given here for two substances.

As to SPHKAP (from UniProt P0C6C0 1-1683), the binding result in experiment [1] and in experiment [2] was “binds” each time.
VAPB (from UniProt Q9Z269 1-243): the binding entry in experiment [1] and in experiment [2] was “binds” in each case.
